Measurements: PMC12668046, “Single cis‐elements in brassinosteroid‐induced upregulated genes are insufficient to recruit both redox states of the BIL1/BZR1 DNA‐binding domain” (Febs Letters, 2025)
No constants are given. Whether binding was seen depends on the method and setting. Tags and fused reporters may be left off the sequences shown.

Molecular target: T1, MBP-fused PIF4 DBD (253–319) connected via a flexible linker (A. thaliana) (UniProt Q8W2F3)
T1 sequence: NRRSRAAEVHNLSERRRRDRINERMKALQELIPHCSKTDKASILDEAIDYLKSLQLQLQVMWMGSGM
Assay: native gel or EMSA; gel shift of unfused BIL1/BZR1 DBD fractions mixed with MBP-fused PIF4 DBD and 0.25 μM FAM-labeled DNA fragments from the IAA19 and SAUR-AC1 promoters; 10 mM Tris/HCl pH 7.5, 50 mM KCl, 50 mM NaCl, 0 or 5 mM DTT, 2.5% glycerol; heterodimers looked for on DNA; both purified

B1: unfused BIL1/BZR1 DBD (21–104), pretreated with the reductant DTT (domain or fragment, A. thaliana, UniProt Q8S307 21-104, looked up)
chain: ARRKPSWRERENNRRRERRRRAVAAKIYTGLRAQGDYNLPKHCDNNEVLKALCVEAGWVVEEDGTTYRKGCKPLPGEIAGTSSR
notes: also called reduced BIL1/BZR1 DBD; source: expressed and purified as described previously [9, 14, 21]; SEC into reductant-free buffer
In the case of B1, the binding is reported as “no binding (tested: 4 μM of each protein)”.
